Measured values as given in PubChem BioAssay AID448 (National Center for Advancing Translational Sciences (NCATS), 2006).
This list holds what a sample rich in hits left over. Active and inactive are the calls of the source. The call rests on the fitted dose curve.

Each compound was assayed on Schistosoma mansoni peroxiredoxin 2 (Prx2) (assay: Schistosoma Mansoni Peroxiredoxins (Prx2)). Details: S. mansoni Prx2 activity coupled to TGR/GSH (TGR is thioredoxin glutathione reductase), NADPH fluorescence loss, qHTS.
Text: NIH Molecular Libraries Screening Centers Network [MLSCN]
NIH Chemical Genomics Center [NCGC]
David Williams [Illinois State University]
Schistosoma mansoni, a causative agent of schistosomiasis, resides in the bloodstream of their host up to 30 years without being eliminated by the host immune attack. One proposed survival mechanism is the production of an antioxidant "firewall" that neutralizes the oxidative assault of the host's immune attack. Schistosoma mansoni peroxiredoxins (Prx) are important parasite antioxidant proteins that play a crucial role in redox balance mechanisms. […] First, the proteins are essential for the parasite survival. […] Third, the protein(s) is amenable for study at the molecular level and can be produced in bacteria in large quantities, in soluble and active form. Inhibition of Prx activity was screened in a coupled-enzyme format with reducing equivalents being transferred from NADPH to […] intermediate via thioredoxin/glutathione reductase (TGR)-catalyzed reaction, then from thioredoxin to hydrogen peroxide via Prx-catalyzed electron transfer. A decrease in the fluorescence intensity of NADPH was used to measure the enzyme activity. Purified S. mansoni TGR and Prx were provided by Professor David L. Williams, Illinois State University.
NCGC Assay Protocol Summary:
100 mM phosphate buffer, pH 7.4, 10 mM EDTA, 0.01% Tween-20.
100 uM NADPH/25 nM TGR/700 uM GSH/50 nM Prx2 mixture in columns 1, 2, 5-48. Titration of control potassium antimonyl tartrate (PAT, from 1 mM, then 1:5) pin-transferred to lower half of column 2. Column 1 and upper half of column 2 are neutral (100% activity).
Three uL of reagents were dispensed to 1536-well Greiner black plates. Compounds and controls (20 nL) were transferred via Kalypsys PinTool. […] The plate was transferred to ViewLux (Perkin-Elmer) High-throughput CCD imager where kinetic measurements (every 30 sec, for a total of 8 min) of NADPH fluorescence were taken using 365 nm excitation/450 nm emission filter set. […]
Potency means the concentration at half of the fitted maximal effect.

Compound	Potency
C[N+]1(C)CC[C@@H](OC(=O)[C@@](O)(c2ccccc2)C2CCCC2)C1	inactive: > 57 µM
CN[C@@H](C)[C@H]1CC[C@@H](N)[C@@H](O[C@@H]2[C@@H](O)[C@@H](O[C@H]3OC[C@@](C)(O)[C@@H](NC)[C@@H]3O)[C@H](N)C[C@@H]2N)O1 (tested in a mixture with another compound)	inactive: > 57 µM
CC(C)[N+]1(C)[C@@H]2CC[C@H]1CC(OC(=O)[C@@H](CO)c1ccccc1)C2 (stereo partly drawn)	inactive: > 57 µM
